No constants are given. Whether binding was seen depends on the method and setting. Some results given as binding are weak or reduced against the parent protein; the word gives no strength.
Tests used:
[1] = molecular target: VAMP7(1–190)-C21S/C56V (rat) (UniProt Q9JHW5); assay: co-purification of coexpressed proteins; coexpressed in E. coli BL21(DE3), 12 h at 25 °C; lysate on Ni-NTA agarose, washed, eluted with 300 mM imidazole, then Superdex 200 gel filtration; monitored by SDS-PAGE, mass spectrometry, CD and MALS
VAMP7(119–190) (rat) = VAMP7(119–190) (rat) (UniProt Q9JHW5); assay: as above
VAMP8(1–76)-I76C (rat) = molecular target: T1, VAMP8(1–76)-I76C (rat) (UniProt Q9WUF4); assay: as above
T1 sequence: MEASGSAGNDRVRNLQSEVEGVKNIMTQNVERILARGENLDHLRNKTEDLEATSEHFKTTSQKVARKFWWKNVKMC

Protein sequences, listed by entry. Tags and fused reporters are not part of them. Lines headed by an entry give the natural chain unless they say otherwise; changes in a name come on top. Chains listed by the source or under a name are the forms on record and can include a tag or linker. Residues count along the entry.
VAMP7(119–190) (Q9JHW5, residues 119-190): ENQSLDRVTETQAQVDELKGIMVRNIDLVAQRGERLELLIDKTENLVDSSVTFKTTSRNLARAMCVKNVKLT
VAMP7(1–190)-C21S/C56V (Q9JHW5, form named): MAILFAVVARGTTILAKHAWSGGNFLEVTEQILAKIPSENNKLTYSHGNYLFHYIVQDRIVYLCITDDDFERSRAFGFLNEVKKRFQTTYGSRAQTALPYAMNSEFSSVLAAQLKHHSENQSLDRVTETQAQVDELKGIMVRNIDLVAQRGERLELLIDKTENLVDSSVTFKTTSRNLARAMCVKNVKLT
SNAP25A (P60881-2, form named): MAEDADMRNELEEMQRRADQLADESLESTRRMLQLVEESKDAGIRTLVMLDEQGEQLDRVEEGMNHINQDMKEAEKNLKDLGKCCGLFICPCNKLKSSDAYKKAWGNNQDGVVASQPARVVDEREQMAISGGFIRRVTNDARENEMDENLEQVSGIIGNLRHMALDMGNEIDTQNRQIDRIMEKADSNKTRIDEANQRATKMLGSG
syntaxin4A(1–274)-C141S/E257C/I261C (Q08850, form named): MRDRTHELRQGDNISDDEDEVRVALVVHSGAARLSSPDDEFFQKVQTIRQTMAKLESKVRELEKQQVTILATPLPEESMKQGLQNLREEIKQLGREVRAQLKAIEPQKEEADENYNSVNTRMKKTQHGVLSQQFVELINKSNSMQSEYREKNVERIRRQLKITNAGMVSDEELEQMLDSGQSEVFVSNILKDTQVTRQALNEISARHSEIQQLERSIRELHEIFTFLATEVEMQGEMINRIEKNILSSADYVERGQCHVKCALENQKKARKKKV

[2] = molecular target: α-soluble NSF attachment protein (α-SNAP) (rat) (UniProt P54921); assay: SEC-MALS; 30 μM SNARE complex and 90 μM α-SNAP (1:3 mixture); WTC-030S5 column; 20 mM Tris-HCl (pH 8.0), 50 mM NaCl, 0.1 mM TCEP; both purified

Row | Molecule | binding [1] | binding (VAMP7(119–190) (rat)) | binding (VAMP8(1–76)-I76C (rat)) | binding [2]
1 | SNAP25A (from UniProt P60881-2 1-206) | binds | binds | – | –
2 | syntaxin4A(1–274)-C141S/E257C/I261C (from UniProt Q08850 1-274) (domain or fragment) | binds | – | binds | –
3 | SNAP23 (protein, UniProt O70377 1-210) MDDLSPEEIQLRAHQVTDESLESTRRILGLAIESQDAGIKTITMLDEQGEQLNRIEEGMDQINKDMREAEKTLTELNKCCGLCVCPCNRTKNFESGKNYKATWGDGGDSSPSNVVSKQPSRITNGQPQQTTGAASGGYIKRITNDAREDEMEENLTQVGSILGNLKNMALDMGNEIDAQNQQIQKITEKADTNKNRIDIANTRAKKLIDS | binds | – | binds | –
4 | α-soluble NSF attachment protein (α-SNAP) (natural protein, rat, UniProt P54921 1-295, looked up, α-SNAP, rat; His6 tag removed with tobacco etch virus protease; source: E. coli BL21(DE3), purified (Ni-NTA, Superdex 200)) MDTSGKQAEAMALLAEAERKVKNSQSFFSGLFGGSSKIEEACEIYARAANMFKMAKNWSAAGNAFCQAAQLHLQLQSKHDAATCFVDAGNAFKKADPQEAINCLMRAIEIYTDMGRFTIAAKHHISIAEIYETELVDVEKAIAHYEQSADYYKGEESNSSANKCLLKVAGYAAQLEQYQKAIDIYEQVGTSAMDSPLLKYSAKDYFFKAALCHFCIDMLNAKLAVQKYEELFPAFSDSRECKLMKKLLEAHEEQNVDSYTESVKEYDSISRLDQWLTTMLLRIKKTIQGDEEDLR | – | – | – | no binding (tested: 90 μM α-SNAP with 30 μM SNARE complex)

Reference: PMC3750193, “Disassembly of All SNARE Complexes by N-Ethylmaleimide-sensitive Factor (NSF) Is Initiated by a Conserved 1:1 Interaction between α-Soluble NSF Attachment Protein (SNAP) and SNARE Complex*^([image sbox.jpg])” (The Journal of Biological Chemistry, 2013)
